No constants are given. Whether binding was seen depends on the method and setting. In cells and extracts the contact can be indirect. Some binding calls cover weakened binding; strength is not graded here.

Amino acid sequences for entries named in this document (tags omitted).
UniProt P15976: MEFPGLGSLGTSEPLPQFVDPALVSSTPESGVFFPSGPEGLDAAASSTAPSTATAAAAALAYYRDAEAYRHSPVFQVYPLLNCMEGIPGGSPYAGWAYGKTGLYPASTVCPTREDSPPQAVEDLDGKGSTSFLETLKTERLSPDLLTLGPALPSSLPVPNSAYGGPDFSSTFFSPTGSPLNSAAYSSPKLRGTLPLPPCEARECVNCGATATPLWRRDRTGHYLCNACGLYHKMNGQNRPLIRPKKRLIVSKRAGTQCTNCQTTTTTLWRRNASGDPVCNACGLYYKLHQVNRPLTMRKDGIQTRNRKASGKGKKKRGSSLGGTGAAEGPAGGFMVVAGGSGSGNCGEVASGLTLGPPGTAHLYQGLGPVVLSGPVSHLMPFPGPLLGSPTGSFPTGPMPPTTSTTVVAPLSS
UniProt Q01196: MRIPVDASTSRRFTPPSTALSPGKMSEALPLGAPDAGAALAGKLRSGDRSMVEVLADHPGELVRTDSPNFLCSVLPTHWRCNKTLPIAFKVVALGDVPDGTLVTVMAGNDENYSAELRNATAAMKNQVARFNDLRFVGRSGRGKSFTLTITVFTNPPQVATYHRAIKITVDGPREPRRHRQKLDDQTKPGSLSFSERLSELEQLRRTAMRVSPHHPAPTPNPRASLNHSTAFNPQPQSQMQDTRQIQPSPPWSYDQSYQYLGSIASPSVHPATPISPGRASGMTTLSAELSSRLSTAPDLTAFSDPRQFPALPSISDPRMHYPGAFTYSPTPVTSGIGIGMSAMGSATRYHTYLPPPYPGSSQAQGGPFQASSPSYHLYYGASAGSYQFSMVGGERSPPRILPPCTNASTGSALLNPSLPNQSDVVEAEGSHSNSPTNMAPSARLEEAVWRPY

This experiment has as its target GATA binding protein 1 (human (endogenous in KU-812)) (UniProt P15976). The experiment in a line: co-IP; KU-812 cell lysate incubated with anti-GATA-1 antibody and protein A/G-conjugated beads at 4 °C overnight, washed three times with PBS; western blot with anti-FOG-1 and anti-RUNX1; cells treated with wogonin (0, 5, 10 and 20 μM) for 72 h. A general note: A western blot detects proteins with antibodies after separation by electrophoresis.

Regarding “Runt-related transcription factor 1 (from UniProt Q01196 1-453)”, the binding entry is on record as “binds”.

B1: friend of GATA-1 (protein, UniProt Q8IX07 1-1006)
chain: MSRRKQSNPRQIKRSLGDMEAREEVQLVGASHMEQKATAPEAPSPPSADVNSPPPLPPPTSPGGPKELEGQEPEPRPTEEEPGSPWSGPDELEPVVQDGQRRIRARLSLATGLSWGPFHGSVQTRASSPRQAEPSPALTLLLVDEACWLRTLPQALTEAEANTEIHRKDDALWCRVTKPVPAGGLLSVLLTAEPHSTPGHPVKKEPAEPTCPAPAHDLQLLPQQAGMASILATAVINKDVFPCKDCGIWYRSERNLQAHLLYYCASRQGTGSPAAAATDEKPKETYPNERVCPFPQCRKSCPSASSLEIHMRSHSGERPFVCLICLSAFTTKANCERHLKVHTDTLSGVCHSCGFISTTRDILYSHLVTNHMVCQPGSKGEIYSPGAGHPATKLPPDSLGSFQQQHTALQGPLASADLGLAPTPSPGLDRKALAEATNGEARAEPLAQNGGSSEPPAAPRSIKVEAVEEPEAAPILGPGEPGPQAPSRTPSPRSPAPARVKAELSSPTPGSSPVPGELGLAGALFLPQYVFGPDAAPPASEILAKMSELVHSRLQQGAGAGAGGAQTGLFPGAPKGATCFECEITFSNVNNYYVHKRLYCSGRRAPEDAPAARRPKAPPGPARAPPGQPAEPDAPRSSPGPGAREEGAGGAATPEDGAGGRGSEGSQSPGSSVDDAEDDPSRTLCEACNIRFSRHETYTVHKRYYCASRHDPPPRRPAAPPGPPGPAAPPAPSPAAPVRTRRRRKLYELHAAGAPPPPPPGHAPAPESPRPGSGSGSGPGLAPARSPGPAADGPIDLSKKPRRPLPGAPAPALADYHECTACRVSFHSLEAYLAHKKYSCPAAPPPGALGLPAAACPYCPPNGPVRGDLLEHFRLAHGLLLGAPLAGPGVEARTPADRGPSPAPAPAASPQPGSRGPRDGLGPEPQEPPPGPPPSPAAAPEAVPPPPAPPSYSDKGVQTPSKGTPAPLPNGNHRYCRLCNIKFSSLSTFIAHKKYYCSSHAAEHVK
Turning to B1, the binding result was “binds”.

The values are drawn from publication PMC8351106.
